Measurements taken from paper doi:10.1101/2024.01.29.577192.
Where two headings read alike, the source gives them in different places. No constants are given. Whether binding was seen depends on the method and setting. Binding seen in cells or lysates may run through a third protein. These calls come from enrichment with a bait or labelling near it, and not all partners need be listed. For some assays here: No binding means not detected with the bait.

Chains of the proteins cited; added tags and fusions are not shown.
UniProt Q00839: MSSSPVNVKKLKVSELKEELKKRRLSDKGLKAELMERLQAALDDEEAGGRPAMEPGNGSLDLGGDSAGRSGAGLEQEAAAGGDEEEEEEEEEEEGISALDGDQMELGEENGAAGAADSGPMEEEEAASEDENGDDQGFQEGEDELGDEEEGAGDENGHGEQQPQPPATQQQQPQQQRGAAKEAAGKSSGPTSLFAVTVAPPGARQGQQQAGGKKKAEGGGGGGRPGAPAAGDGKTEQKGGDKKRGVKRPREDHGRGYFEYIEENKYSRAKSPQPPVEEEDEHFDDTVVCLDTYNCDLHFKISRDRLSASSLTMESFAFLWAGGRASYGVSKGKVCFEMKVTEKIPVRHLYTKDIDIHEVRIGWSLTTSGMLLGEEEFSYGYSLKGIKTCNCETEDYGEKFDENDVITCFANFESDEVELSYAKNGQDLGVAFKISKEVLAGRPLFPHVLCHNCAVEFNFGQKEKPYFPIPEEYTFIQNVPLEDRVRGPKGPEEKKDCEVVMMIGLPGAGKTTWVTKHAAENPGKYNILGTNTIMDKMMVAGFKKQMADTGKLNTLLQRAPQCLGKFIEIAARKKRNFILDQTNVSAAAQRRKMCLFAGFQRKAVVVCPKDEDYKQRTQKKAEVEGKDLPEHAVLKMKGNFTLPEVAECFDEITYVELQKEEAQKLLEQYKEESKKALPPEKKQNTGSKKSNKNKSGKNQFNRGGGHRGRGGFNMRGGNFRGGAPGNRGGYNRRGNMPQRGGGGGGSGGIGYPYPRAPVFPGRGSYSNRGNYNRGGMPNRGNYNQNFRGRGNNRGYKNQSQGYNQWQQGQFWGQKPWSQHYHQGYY
UniProt O00571: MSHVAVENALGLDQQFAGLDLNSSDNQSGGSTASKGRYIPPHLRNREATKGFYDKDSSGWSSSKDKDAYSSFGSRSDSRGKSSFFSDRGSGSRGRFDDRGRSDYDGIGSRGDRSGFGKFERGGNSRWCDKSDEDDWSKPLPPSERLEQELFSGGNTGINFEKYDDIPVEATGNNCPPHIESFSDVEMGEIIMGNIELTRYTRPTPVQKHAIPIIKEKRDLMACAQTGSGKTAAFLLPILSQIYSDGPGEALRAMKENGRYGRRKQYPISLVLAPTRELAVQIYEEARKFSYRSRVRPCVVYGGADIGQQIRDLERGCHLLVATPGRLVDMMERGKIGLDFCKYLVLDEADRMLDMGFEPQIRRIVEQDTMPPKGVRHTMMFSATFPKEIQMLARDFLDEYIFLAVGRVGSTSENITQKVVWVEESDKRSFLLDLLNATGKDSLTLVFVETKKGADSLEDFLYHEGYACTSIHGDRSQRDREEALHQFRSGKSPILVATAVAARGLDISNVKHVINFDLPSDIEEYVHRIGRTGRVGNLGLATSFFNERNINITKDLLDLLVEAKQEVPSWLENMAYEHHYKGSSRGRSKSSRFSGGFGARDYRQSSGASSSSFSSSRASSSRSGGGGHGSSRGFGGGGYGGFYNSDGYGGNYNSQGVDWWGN

Legend:
[1] = target: hnRNP U (human (endogenous in HCT116)) (UniProt Q00839); assay: affinity purification with mass spectrometry
[2] = target: hnRNP U (human (endogenous in HCT116)) (UniProt Q00839); assay: affinity purification with mass spectrometry; remark: listed apart in the source

## DDX3X (from UniProt O00571 1-662)
[1]
  binding: binds

B1: GRSF1 (protein, UniProt Q12849 118-480)
chain: SQESKTTYLEDLPPPPEYELAPSKLEEEVDDVFLIRAQGLPWSCTMEDVLNFFSDCRIRNGENGIHFLLNRDGKRRGDALIEMESEQDVQKALEKHRMYMGQRYVEVYEINNEDVDALMKSLQVKSSPVVNDGVVRLRGLPYSCNEKDIVDFFAGLNIVDITFVMDYRGRRKTGEAYVQFEEPEMANQALLKHREEIGNRYIEIFPSRRNEVRTHVGSYKGKKIASFPTAKYITEPEMVFEEHEVNEDIQPMTAFESEKEIELPKEVPEKLPEAADFGTTSSLHFVHMRGLPFQANAQDIINFFAPLKPVRITMEYSSSGKATGEADVHFETHEDAVAAMLKDRSHVHHRYIELFLNSCPKGK
[2]
  binding: no binding
